The values that follow are results of earlier work, collected in patent US20220202682A1, “INCREASING THE STABILITY OF AGENTS FOR THE TREATMENT OF KERATINOUS MATERIAL” (Henkel AG & Co. KGaA, priority 2019, published 2022).

For this data set the following is noted: 25° C.

The structures appear in SMILES notation.

Regarding `CCN(Cc1cccc(S(=O)(=O)[O-])c1)c1ccc(C(=C2C=CC(=[N+](CC)Cc3cccc(S(=O)(=O)[O-])c3)C=C2)c2ccccc2S(=O)(=O)[O-])cc1.[Na+].[Na+]` [Acid Blue 9], the solubility in water entry is given as “more than 20 % by weight”.
